The target of the assay is T1, Axin-V5 (Drosophila) (UniProt Q9V407).
T1 sequence: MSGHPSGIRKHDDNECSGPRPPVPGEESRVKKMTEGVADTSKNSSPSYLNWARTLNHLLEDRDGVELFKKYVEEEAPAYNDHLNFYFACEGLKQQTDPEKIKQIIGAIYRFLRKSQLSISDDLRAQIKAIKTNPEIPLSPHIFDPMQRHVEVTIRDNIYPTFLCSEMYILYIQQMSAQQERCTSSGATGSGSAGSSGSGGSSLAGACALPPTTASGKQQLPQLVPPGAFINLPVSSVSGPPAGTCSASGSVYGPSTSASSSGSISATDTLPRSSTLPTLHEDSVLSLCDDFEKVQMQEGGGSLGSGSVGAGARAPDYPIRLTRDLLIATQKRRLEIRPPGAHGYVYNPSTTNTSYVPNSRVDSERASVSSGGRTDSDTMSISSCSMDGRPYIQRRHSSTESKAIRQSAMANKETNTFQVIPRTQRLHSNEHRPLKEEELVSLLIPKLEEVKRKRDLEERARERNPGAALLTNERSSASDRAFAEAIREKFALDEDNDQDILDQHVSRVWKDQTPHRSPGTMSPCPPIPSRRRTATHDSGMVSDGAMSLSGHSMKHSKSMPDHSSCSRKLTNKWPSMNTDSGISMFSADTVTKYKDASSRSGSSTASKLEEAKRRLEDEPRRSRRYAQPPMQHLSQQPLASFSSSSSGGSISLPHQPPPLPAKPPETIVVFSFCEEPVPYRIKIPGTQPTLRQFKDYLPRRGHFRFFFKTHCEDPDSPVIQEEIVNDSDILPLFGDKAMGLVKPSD
The experiment in a line: co-IP; S2R+ cells transfected with Axin-V5 or AxinΔRGS-V5, treated 48 hours later with Wg CM for one hour; lysates (50mM Tris-HCl pH 8.0, 100mM NaCl, 1% NP-40, 10% glycerol, 1.5mM EDTA, 1uM ADP-HPD) with anti-V5 antibody overnight at 4°C, protein A/G-sepharose beads; immunoblot. Background: Immunoblotting shows a protein as a band on a membrane.

No constants are given. Whether binding was seen depends on the method and setting. In cells and extracts the contact can be indirect. Binding calls can cover weak binding; strength is not graded here. Tags and fused reporters may be left off the sequences shown.

As to Apc (Drosophila (endogenous in S2R+)), the binding entry was “binds”.

Source of the values: article PMC5800574.
